Results deposited as PubChem BioAssay AID1259291 (Sanger Institute, 2017)
This is one part, drawn at random, of 794 reagents tested. 15 of them (1.9%) count as active. 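Calls rest on knock-down alone; drug synergy scores do not affect them; drugs added a day post-transfection, DMSO vehicle as comparison.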 Unmarked entries are inactive. Viability is capped at 1. Further read-outs or replicates are left out here. No sequences are given here. Not given: the amount of reagent, the time to read-out.

Aim: 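Find kinase and colorectal-cancer-mutated genes whose loss kills HT29 cells or aids anchor drugs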 (primary screen)
System: HT29 human colorectal cancer cells
Reagents: siRNA pool against human genes
Conditions: anchor drugs added a day after transfection: BYL719 at 1 µM, cetuximab at 5 µg/ml or trametinib at 10 nM, or DMSO vehicle alone
Read-out: 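Replicate-averaged viability relative to non-targeting pool, robust z-score based on control wells, plus per-drug synergy score for 1 µM BYL719, 5 µg/ml cetuximab and 10 nM trametinib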
Direction: robust z-score, knock-down alone and viability, knock-down alone: higher = more viable cells
Units: viability, knock-down alone in fraction of control
Hit rule: 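a knock-down alone scoring under -3 on robust z-score is called essential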
Meaning of the calls: active = essential (knock-down alone); inactive = no change alone

Depletion of PRPS1 (phosphoribosyl pyrophosphate synthetase 1) gave: robust z-score, knock-down alone -0.331; viability, knock-down alone 0.945.
With knock-down of PRKG2 (protein kinase cGMP-dependent 2) the results were robust z-score, knock-down alone 0.552; viability, knock-down alone 1.
After knock-down of MAGI2, the screen gave robust z-score, knock-down alone 0.552; viability, knock-down alone 1.
Against ASPM (assembly factor for spindle microtubules), the entry reads robust z-score, knock-down alone -0.13; viability, knock-down alone 0.958.
LMBR1 (limb development membrane protein 1) showed robust z-score, knock-down alone -0.225; viability, knock-down alone 0.952.
After knock-down of TCF12 (transcription factor 12), the screen gave robust z-score, knock-down alone 0.552; viability, knock-down alone 1.

Limited to “robust z-score, knock-down alone” (2 entries from above):
MAGI2	0.552
ASPM (assembly factor for spindle microtubules)	-0.13

The results go on:
For PFKFB2 (6-phosphofructo-2-kinase/fructose-2,6-biphosphatase 2) the deposit lists robust z-score, knock-down alone 0.529; viability, knock-down alone 0.999.
Knock-down of ALPK1 (alpha kinase 1) gave: robust z-score, knock-down alone 0.552; viability, knock-down alone 1.
COQ8B (coenzyme Q8B) showed robust z-score, knock-down alone -0.0761; viability, knock-down alone 0.961.
EPHA2 (EPH receptor A2) scored robust z-score, knock-down alone 0.552; viability, knock-down alone 1.
After knock-down of ALK (ALK receptor tyrosine kinase), the record shows robust z-score, knock-down alone 0.552; viability, knock-down alone 1.
MAP3K8 (mitogen-activated protein kinase kinase kinase 8) gave robust z-score, knock-down alone -1.34; viability, knock-down alone 0.883.
Against CHUK the deposit lists robust z-score, knock-down alone 0.552; viability, knock-down alone 1.
Against SCYL1 (SCY1 like pseudokinase 1) the deposit lists robust z-score, knock-down alone 0.431; viability, knock-down alone 0.992.
SRPK1 (SRSF protein kinase 1) scored robust z-score, knock-down alone 0.552; viability, knock-down alone 1.
FYN (FYN proto-oncogene, Src family tyrosine kinase) showed robust z-score, knock-down alone 0.552; viability, knock-down alone 1.
With knock-down of UHMK1 (U2AF homology motif kinase 1) the results were robust z-score, knock-down alone 0.021; viability, knock-down alone 0.967.
Against RIOK3 (RIO kinase 3) the deposit lists robust z-score, knock-down alone 0.552; viability, knock-down alone 1.
Knock-down of NEK1 (NIMA related kinase 1) gave: robust z-score, knock-down alone 0.552; viability, knock-down alone 1.
